This note sets out measurements from US12622910B2, “Inhibitors of Bruton's tyrosine kinase and methods of their use” (Janssen Pharmaceutica NV, priority 2021, dated 2026).

This series can be described thus: Caco-2 permeability. Particulars: human. The series is classed as in vitro ADME.

On to `CC(C)NCC(O)COc1ccc(CC(N)=O)cc1` (stereo not drawn) [Atenolol], for which the efflux ratio at 5 μM (Caco-2, read-out: Efflux Ratio (BA/AB)) amounted to 1.5. Where the note is “Caco-2, 5 μM”, this compound gave an apical-to-basolateral permeability (Papp A→B) at 5 μM of 0.317 ×10⁻⁶ cm/s and a basolateral-to-apical permeability (Papp B→A) at 5 μM of 0.477 ×10⁻⁶ cm/s.
